Results as given in PubChem BioAssay AID2685 (National Center for Advancing Translational Sciences (NCATS), 2010).
The other results are listed elsewhere or left out. Further columns of the screen follow, without active or inactive calls. The list favours compounds with an active or inconclusive main result. Words in brackets tell the shape of the fitted curve; partial curves, single points and poor fits give uncertain potencies.

Assay: qHTS Assay for Lipid Storage Modulators in Drosophila S3 Cells;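 for cell number change: cells counted by Cell Tracker Red CMTPX staining in the red channel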
Settings: BODIPY lipid droplet fluorescence, 18-24 h; for cell number change: measured here: cell count max response, cells fed with added oleic acid
How it was run: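 Laser-scanning cytometry quantifies lipid droplet accumulation (500–530 nm total intensity; droplet/cell object ratio) in oleic acid-fed (400 uM added) Drosophila S3 cells treated with a concentration series. 20 uM Triacsin C defined 100% inhibition.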

[1] = measured here: cell number channel AC50, cells fed with added oleic acid
[2] = measured here: lipid fluorescence (Fed channel) AC50, cells fed with added oleic acid

| SMILES | AC50 [1] | cell number change | AC50 [2] |
| --- | --- | --- | --- |
| Cn1c(=O)c2c(nc(Br)n2CC(=O)c2cccs2)n(C)c1=O | 0.146 µM [rising, full curve] | – | – |
| CC(C)n1nc(C(=O)Nc2nnc(SCc3c(Cl)cccc3Cl)s2)c2ccccc2c1=O | 5.17 µM [rising, partial curve] | 72.4% | – |
| CCCCc1nc2ccccc2[nH]1 | – | – | 0.0058 µM [falling, full curve, poor fit] |
| CC(C)c1ccc(NC2CCCN(C(=O)c3ccncc3)C2)cc1 (stereo unspecified) | 20.6 µM [rising, partial curve] | 141% | – |
| COCCOC(=O)c1c(C)n(C)c2ccc(OC(=O)c3ccco3)cc12 | 2.91 µM [rising, single point] | – | 3.66 µM [rising, partial curve, poor fit] |
| CCOC(=O)C1=C(C)N=C2c3ccccc3C(=O)C2C1c1ccccc1 (stereo unspecified) | 0.651 µM [rising, single point] | 124% | 29.1 µM [rising, single point] |
| Cc1ccc(NC(=O)c2cccc(S(=O)(=O)N3CCN(c4ccc(F)cc4)CC3)c2)nc1 | – | – | 29.1 µM [falling, single point] |
| COc1ccc(-c2nc3ccccc3c(=O)n2-c2c(C)n(C)n(-c3ccccc3)c2=O)cc1 | 0.461 µM [rising, partial curve, poor fit] | 6.47% | – |
| CCc1ccc[n+](-c2[nH]c(=O)sc2/C=N/N=C(\N)[O-])c1 | 0.82 µM [falling, full curve, poor fit] | -11.5% | 0.461 µM [falling, single point] |
| Cc1ccc(S(=O)(=O)N2[C@@H](c3ccc(F)cc3)C(C(=O)O)=CC[C@H]2c2cccc(Cl)c2)cc1 | – | -1.86% | 16.4 µM [rising, partial curve, poor fit] |
| Cc1ccc(OCc2cc(C(=O)N3CCCC(O)C3)no2)cn1 (stereo unspecified) | – | -9.91% | 6.51 µM [rising, single point] |
| S=C1NCN(CCc2ccccc2)CN1 | 4.11 µM [falling, full curve, poor fit] | -27.2% | 16.4 µM [falling, single point] |
| CC(=O)c1ccc(NC(=S)NCCCn2ccnc2)cc1 | 0.517 µM [rising, partial curve, poor fit] | 39.9% | 1.84 µM [rising, full curve] |
| CC(=O)NC(c1ccc(C)cc1)c1cc(Cl)c2cccnc2c1O (stereo unspecified) | 23.1 µM [falling, single point] | -33% | 29.1 µM [falling, single point] |
| N#Cc1nc(-c2ccccc2)oc1NCCN1CCCCC1 | – | 24.1% | – |
| CC(OC(=O)Cc1c(F)cccc1Cl)C(=O)NC1CCCCC1C (stereo unspecified) | – | – | 29.1 µM [falling, single point] |
| O=[N+]([O-])c1cc(S(=O)(=O)N2CCCC2)ccc1N/N=C/c1cccnc1 | 6.51 µM [falling, single point] | 0.0569% | 1.16 µM [rising, single point] |
| COc1cccc(CNC(=O)C2CCN(S(=O)(=O)c3cnc[nH]3)CC2)c1 | – | 0.135% | 0.0517 µM [falling, full curve, poor fit] |
| CC(=O)C[C@H](O)CC(=O)[C@@H]1OC(=O)CCCCCCc2ccccc21 | – | -12.2% | 0.82 µM [rising, full curve] |

| SMILES | AC50 [1] | cell number change | AC50 [2] |
| --- | --- | --- | --- |
| Cc1nc2cc3nc(C)sc3cc2s1 | – | -0.154% | 0.082 µM [rising, partial curve, poor fit] |
| O=C1CCCN1C(=O)COc1ccccc1[N+](=O)[O-] | – | -6.5% | – |
| Cc1cc(NC(=O)CSc2nnc(NCc3ccccc3)s2)no1 | – | -17% | 0.326 µM [falling, full curve] |
| Cc1ccc(C)c(N2CCN(C(=O)c3ccc(Cn4c(=S)[nH]c5ccc(N6CCOCC6)cc5c4=O)cc3)CC2)c1 | 8.2 µM [rising, partial curve] | 65.4% | – |
| Cc1ccc(NC(=O)CCNC(=O)Cn2ccc3ccccc3c2=O)cc1F | – | 11.3% | 11.6 µM [falling, single point] |
| CCOC(=O)c1c(-c2cccs2)csc1NC(=O)COC(=O)c1c(C)noc1C | – | -18.6% | – |
| O=S(=O)(c1ccc(NC2CCCCC2)cc1)N1CCOCC1 | – | -19.9% | 20.6 µM [rising, single point] |
| Cc1ccc(Nc2cnn(C34CC5CC(CC(CC(=O)O)(C5)C3)C4)c(=O)c2Cl)cc1 | – | -9.44% | 29.1 µM [falling, single point] |
| CCOc1ccccc1NC(=O)C1CCCCN1S(=O)(=O)c1ccccc1 (stereo unspecified) | – | -12.2% | – |
| N=c1c2c(-c3ccccc3)c(-c3ccccc3)n(Cc3ccccc3)c2ncn1CCO | – | 7.75% | 4.11 µM [falling, partial curve, poor fit] |
| O=C(NCc1cccs1)c1cc(S(=O)(=O)N2CCOCC2)ccc1N1CCCC1 | – | 12.5% | – |
| O=C(COC(=O)c1cc(S(=O)(=O)N2CCc3ccccc3C2)ccc1Cl)NCc1ccco1 | 23.1 µM [rising, single point] | 32.5% | 18.4 µM [rising, single point] |
| O=C(NCCSCc1ccccc1)c1ccc(C2SCC(=O)N2Cc2ccccc2)cc1 (stereo unspecified) | 20.6 µM [falling, single point] | -39.4% | 0.731 µM [rising, single point] |
| Cc1ccc(S(=O)(=O)N2CCC(C(=O)N3CCCC(C(F)(F)F)C3)CC2)cc1C (stereo unspecified) | – | -21.5% | 0.651 µM [rising, full curve, poor fit] |
| CCn1nnc(-c2ccccc2NC(=O)C(F)(F)F)n1 | 14.6 µM [rising, partial curve] | 68.2% | 29.1 µM [rising, single point] |
| Cc1ccc2[nH]c3c(c2c1)CCN(C)C3 | – | 5.22% | 4.61 µM [rising, full curve, poor fit] |
| COc1ccccc1Nc1nc(N)nc(-c2cc3ccccc3o2)n1 | 20.6 µM [rising, single point] | 115% | 2.91 µM [rising, partial curve] |
| CN1CCN(S(=O)(=O)Cc2ccccc2Cl)CC1 | – | -13.9% | 0.206 µM [falling, full curve, poor fit] |
| O=[N+]([O-])c1ccc(-[n+]2ccc3ccccc3c2)c([N+](=O)[O-])c1 | 18.4 µM [falling, partial curve] | -60.1% | 0.82 µM [rising, partial curve, poor fit] |

| SMILES | AC50 [1] | cell number change | AC50 [2] |
| --- | --- | --- | --- |
| O=C(/C=C/c1ccco1)NC(=S)Nc1ccc(Cl)cn1 | – | 29.9% | 6.51 µM [rising, partial curve, poor fit] |
| CN(C(=O)COC(=O)C1CCN(S(=O)(=O)c2ccc3c(c2)OCCO3)CC1)C1CCS(=O)(=O)C1 (stereo unspecified) | – | -26% | 0.326 µM [falling, full curve] |
| O=C(NCc1nc(-c2ccccc2)cs1)c1ccccc1 | – | -8% | 0.164 µM [falling, full curve, poor fit] |
| CC1CCCC(C)N1C(=O)COc1ccc(-c2nnco2)cc1 (stereo unspecified) | – | 26.7% | 20.6 µM [rising, single point] |
| O=C(NCCc1ccc(Cl)cc1)C1CCCN1C(=O)NCc1ccccc1 (stereo unspecified) | – | -9.52% | 0.00461 µM [falling, full curve, poor fit] |
| CC(C)Nc1ccc(C(CC(N)=O)NC(=O)c2ccccc2)cc1[N+](=O)[O-] (stereo unspecified) | – | -6.89% | 32.6 µM [falling, single point] |
| COc1ccc(N=Cc2oc3ccc4ccccc4c3c2O)cc1 | – | 22.8% | 29.1 µM [falling, single point] |
| CC(C)(C)OC(=O)N[C@H](C(=O)OC(C)(C)C)c1ccc(Br)cc1 | 6.51 µM [falling, single point] | -34.8% | 5.8 µM [falling, single point] |
| O=C(Nc1ccc(F)cc1)c1ccc(S(=O)(=O)NCc2cccnc2)cc1 | 0.164 µM [falling, full curve, poor fit] | -32.4% | – |
| COc1ccc(Cl)cc1S(=O)(=O)N1CCC(C(=O)NC2CCCC2)CC1 | – | -18.3% | – |
| Cc1cccc([N+](=O)[O-])c1NC(=O)COC(=O)C1CCCO1 (stereo unspecified) | – | 3.18% | 0.461 µM [rising, single point] |
| COc1ccc(-c2csc3nc(-c4ccc(C)cc4)oc(=O)c23)cc1OC | – | -4.52% | – |
| Cc1ccc(S(=O)(=O)Nc2cc3c(C(=O)Nc4ccccc4)c(C)oc3c3ccccc23)cc1 | 7.31 µM [falling, partial curve] | -54.7% | 6.51 µM [falling, full curve] |
| COc1cccc(-c2nnc(SCC(=O)Nc3ccc(S(N)(=O)=O)cc3)n2C)c1 | 0.146 µM [falling, full curve, poor fit] | -3.92% | 18.4 µM [falling, single point] |
| COc1ccc(-n2c(=S)[nH]c3cc(C(=O)NCc4ccc(F)cc4)ccc3c2=O)c(OC)c1 | – | 1.35% | 0.651 µM [rising, partial curve, poor fit] |
| Cc1ccccc1OCC(=O)OCC(=O)NCc1ccco1 | – | -12.7% | 29.1 µM [rising, single point] |
| O=C(Cc1c(F)cccc1Cl)Nc1ccccc1-c1ccccc1 | – | 27.4% | 16.4 µM [rising, partial curve] |
| CCOC(=O)N1CCN(C(=O)CN(C2CCCCC2)S(=O)(=O)c2c(C)cc(C)cc2C)CC1 | 14.6 µM [rising, partial curve] | 53.2% | 23.1 µM [falling, single point] |
